Reference: paper doi:10.1101/2023.11.10.566635
Results are given in words; binding and its absence hold for the method and conditions named. Binding seen in cells or lysates may run through a third protein.

Protein sequences, listed by entry. Tags and fused reporters are not part of them. Lines headed by an entry give the natural chain unless they say otherwise; changes in a name come on top.
UniProt Q9WTX5: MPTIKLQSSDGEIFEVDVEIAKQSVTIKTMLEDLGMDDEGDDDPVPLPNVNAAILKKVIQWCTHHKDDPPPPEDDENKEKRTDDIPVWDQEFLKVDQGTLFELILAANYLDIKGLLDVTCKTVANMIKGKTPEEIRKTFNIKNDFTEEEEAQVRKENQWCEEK
UniProt Q9D417: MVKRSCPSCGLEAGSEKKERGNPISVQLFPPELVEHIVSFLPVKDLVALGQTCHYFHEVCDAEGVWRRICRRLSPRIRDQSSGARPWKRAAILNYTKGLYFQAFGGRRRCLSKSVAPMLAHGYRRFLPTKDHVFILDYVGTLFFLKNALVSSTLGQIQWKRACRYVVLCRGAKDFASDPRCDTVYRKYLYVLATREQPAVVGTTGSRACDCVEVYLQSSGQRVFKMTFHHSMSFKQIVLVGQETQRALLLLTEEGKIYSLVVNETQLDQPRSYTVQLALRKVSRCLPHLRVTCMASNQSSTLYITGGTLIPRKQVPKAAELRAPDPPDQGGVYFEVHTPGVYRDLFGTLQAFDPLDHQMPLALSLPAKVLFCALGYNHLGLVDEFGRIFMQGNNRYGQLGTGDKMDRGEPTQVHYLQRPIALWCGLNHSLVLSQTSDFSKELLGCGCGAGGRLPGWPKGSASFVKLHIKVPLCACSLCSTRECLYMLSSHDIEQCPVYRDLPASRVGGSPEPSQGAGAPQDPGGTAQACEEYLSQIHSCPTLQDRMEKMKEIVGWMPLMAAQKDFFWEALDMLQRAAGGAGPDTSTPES

Target: SKP1-1D4 (mouse) (UniProt Q9WTX5)
Test: co-IP; Fbxo24 (WT or ΔF)-FLAG co-expressed with Skp1-1D4 in HEK293T cells; IP with anti-1D4 or anti-FLAG antibody on Protein G magnetic beads, 1 h at 4°C; 1% Triton X-100 lysis buffer, 50 mM Tris-HCl pH 7.4, 150 mM NaCl; immunoblot

binding: no binding
Substance: FBXO24 (ΔF) tagged with 3×FLAG, without the F-box domain (from UniProt Q9D417)
